Several values for one entry are separate records, joined by “and”; a condition that tells them apart may be missing. Equal entries are not always repeated. The list shows a part of the results. These are further read-outs of the screen, such as a control signal, another cell line or another target. No call is given for them. Compounds called inactive in the main read-out are mostly missing here. The note in brackets gives the kind of curve behind each potency; many fits are weak.

A word on the AC50: it is the concentration giving half of the maximal activity seen.

The experiment in a line: qHTS Assay for Lipid Storage Modulators in Drosophila S3 Cells.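 As to cell number change: cells counted by Cell Tracker Red CMTPX staining in the red channel.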 The conditions noted are these: BODIPY lipid droplet fluorescence, 18-24 h; for cell number change: measured here: cell count max response, cells fed with added oleic acid. The method, boiled down: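 Drosophila S3 cells loaded with oleic acid (400 uM, as added) and compounds at several concentrations; lipid droplets imaged by 488-nm laser-scanning cytometry, 500–530 nm intensity and object ratio to cell channel. Percent activity normalized to 20 uM Triacsin C.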
A general note: qHTS replaces the single test concentration by a dilution series.

The mark [1] stands for this setting: measured here: lipid fluorescence (Fed channel) AC50, cells fed with added oleic acid.
Where [2] appears, read: measured here: cell number channel AC50, cells fed with added oleic acid.

Consider `O=C(NCc1nnc(SCC(=O)N2CCCCCC2)o1)c1ccccc1F`, for which the cell number change was -0.283%. Besides, the AC50 under setting [1] is 0.82 µM [falling, full curve, poor fit].

Regarding `O=C(NCCCc1ccccc1)c1ccccc1`, the cell number change is 24.3%. The AC50 under setting [1] was 0.651 µM [falling, single point].

Regarding `Cc1ccccc1NC(=O)CN1C(=O)NC2(CCc3ccccc32)C1=O` (stereo unspecified), the cell number change worked out at 2.88%. Also, the half-maximal activity concentration (AC50) under setting [1] is 3.66 µM [falling, full curve].

Turning to `Cc1ccc(-n2nc(-c3ccco3)cc2C(=O)O)cc1`, the cell number change was 11.5%. In addition, under setting [1], the AC50 is 18.4 µM [rising, partial curve, poor fit].

On to `COC(=O)c1sc(NC(=O)CSc2nncs2)c(C(=O)OC)c1C`, for which the cell number change stood at 34%. The AC50 under setting [2] was 1.16 µM [rising, full curve].

For `Brc1cc2c(cc1Cn1c(-c3cncs3)nc3ccccc31)OCO2`, the half-maximal activity concentration (AC50) is 2.06 µM [rising, partial curve] under setting [2] and 2.06 µM [rising, partial curve] under setting [1].

Regarding `Oc1ccc2ccccc2c1N=Nc1ccc(F)cc1`, the cell number change was -63.8%. The AC50 under setting [2] is 20.6 µM [falling, single point]. For the same compound, the AC50 under setting [1] is 18.4 µM [falling, single point] and 2.91 µM [falling, full curve].

Regarding `CS(=O)(=O)N1CCc2cc(C(=O)N3CCCC3)ccc21`, the cell number change is -27.7%. For the same compound, under setting [2], the AC50 was 0.291 µM [falling, full curve, poor fit]. Further, the AC50 under setting [1] was 0.731 µM [falling, full curve].

Take `O=c1c2ccccc2nc2n1CCN2Cc1ccc(Cl)cc1`: the cell number change was found to be 30.9%. Also, the AC50 under setting [2] is 0.651 µM [rising, full curve, poor fit]. Under setting [1], the AC50 was 1.46 µM [rising, full curve].

As to `COc1ccc(CNS(=O)(=O)c2cc3c4c(c2)C(C)C(=O)N4CCC3)cc1` (stereo unspecified), the cell number change is -3.05%.

As for `COC(=O)c1[nH]c2ccc(Cl)cc2c1NC(=O)CN1CCC(C(N)=O)CC1`, the cell number change was -0.259%. Further, the AC50 under setting [1] was 16.4 µM [rising, partial curve].

On to `Cc1ccc(/C=N/NC(=O)COc2ccccc2-c2ccccc2)cc1`, for which the cell number change is -32.4%. Also, under setting [2], the concentration at half-maximal activity (AC50) is 29.1 µM [falling, single point]. The AC50 under setting [1] was 1.16 µM [falling, full curve, poor fit].

Consider `CNC(=S)Nc1ccc([N+](=O)[O-])cc1`, for which the cell number change was -3.72%.

As to `CCN(CC(=O)Nc1c(F)cccc1F)C(=O)CNC(=O)c1ccc2ccccc2c1`, the cell number change was -3.73%. Moreover, under setting [1], the AC50 is 4.11 µM [rising, single point].

`COc1cccc(C(C)NC(=O)C2CCCO2)c1` (stereo unspecified): the cell number change stood at 26.4%. Also, under setting [1], the AC50 was 29.1 µM [rising, single point].

In the case of `CCOc1ccc(C(=O)/C=C/c2cn(CN3CCN(C)CC3)c3ccccc23)cc1`, the cell number change is -38.4%. In addition, the AC50 under setting [2] is 23.1 µM [falling, single point]. The AC50 under setting [1] is 29.1 µM [falling, single point].

In the case of `CN(C)CCNC(=S)Nc1ccc(-c2nc3ccccc3[nH]2)cc1`, the cell number change was found to be 31%. In addition, the AC50 under setting [2] was 6.51 µM [rising, partial curve]. Moreover, the AC50 under setting [1] was 7.31 µM [rising, partial curve].

`CCc1cc(=O)oc2cc(OCC(=O)N3CCCc4ccccc43)ccc12`: the cell number change came out at 5.76%. Also, under setting [1], the AC50 was 18.4 µM [rising, single point].

With `O=C(CNC(=O)c1ccccc1F)Nc1ccncc1`, the cell number change was -12%.

`COc1cc(NC(=O)CSc2ccc(-c3cccnc3)nn2)cc(OC)c1`: the cell number change was 0.348%.

For the compound `CC(=O)c1ccc(S(=O)(=O)N2CCN(C(=O)CN3C(=O)NC4(CCCC4)C3=O)CC2)cc1`, the cell number change was 2.33%. The AC50 under setting [1] is 0.326 µM [falling, partial curve, poor fit].

With `Cn1c(CN2CCCC2)nc2cc(NC(=O)c3cccs3)ccc21`, the cell number change was -0.975%. Further, under setting [1], the AC50 was 0.164 µM [falling, full curve, poor fit].

As for `O=C(NCc1ccco1)c1ccc(N2CCCCC2)c([N+](=O)[O-])c1`, the cell number change is -0.94%. Further, under setting [1], the AC50 was 25.9 µM [rising, single point].

On to `COc1ccc(N2CCN(C(=O)C3CCCN(S(=O)(=O)c4cccc5cccnc45)C3)CC2)cc1` (stereo unspecified), for which the cell number change was -1.01%. The AC50 under setting [2] is 0.58 µM [falling, partial curve]. Further, the AC50 under setting [1] is 0.146 µM [rising, full curve, poor fit].

For the compound `O=C(CCNC(=O)c1ccccc1Cl)Nc1nc(-c2ccccc2Cl)cs1`, the cell number change is -33.2%. The AC50 under setting [2] is 13 µM [falling, single point]. Further, the AC50 under setting [1] is 13 µM [falling, single point].

In the case of `Cc1ccc(C2N(c3ccc(F)cc3)C(=O)C3CCCN32)cc1` (stereo unspecified), the cell number change stood at 26.2%. In addition, the AC50 under setting [1] is 10.3 µM [rising, partial curve, poor fit].

As for `Cc1cccc(NC(=O)C2CC(=O)N(c3ccc4c(c3)OCCO4)C2)n1` (stereo unspecified), the cell number change was -31.1%. For the same compound, the AC50 under setting [2] was 29.1 µM [falling, single point]. In addition, under setting [1], the AC50 was 32.6 µM [falling, single point].

Consider `CC1CCCCC1NC(=O)C1CCN(S(=O)(=O)N2CCCCCC2)CC1` (stereo unspecified), for which the cell number change is -10.7%. Besides, the AC50 under setting [1] is 0.103 µM [falling, full curve, poor fit].

As to `COc1cc(NC(=O)c2ccccc2Cl)c(OC)cc1NC(=O)CN1CCOCC1`, the cell number change turned out to be 12.2%. Further, under setting [2], the AC50 is 3.26 µM [rising, single point]. In addition, the AC50 under setting [1] is 0.092 µM [rising, full curve, poor fit].

As for `CCCCNC(=O)C(=O)N/N=C/c1ccc(C(=O)OC)cc1`, the cell number change is -18.4%. Besides, the AC50 under setting [1] was 16.4 µM [falling, partial curve, poor fit].

Turning to `CCOc1cc(C2NC(=O)NC(O)(C(F)(F)F)C2C(=O)c2ccccc2)ccc1OC` (stereo unspecified), the cell number change is -125%. Also, under setting [2], the AC50 was 7.31 µM [falling, partial curve]. The AC50 under setting [1] is 0.461 µM [falling, single point].

With `COc1ccc(OC)c(C2=NS(=O)(=O)N(C)C(C(=O)Nc3ccc(F)cc3F)=C2)c1`, the cell number change was -12.2%.

`CCN(CC(=O)Nc1ccc(OC)cc1)C(=O)c1ccc(NS(=O)(=O)c2ccc(C(C)=O)cc2)cc1`: the cell number change was determined as 17.3%.

In the case of `O=C(Nc1cccc(C(F)(F)F)c1)c1cccnc1N1CCN(c2ccccc2)CC1`, the cell number change is -4.82%. Further, the half-maximal activity concentration (AC50) under setting [2] was 0.461 µM [rising, partial curve]. Further, under setting [1], the half-maximal activity concentration (AC50) was 0.461 µM [rising, full curve].

Turning to `O=C(NCc1cccnc1)C(=O)N/N=C/c1ccc([N+](=O)[O-])cc1`, the cell number change is -18.3%. Moreover, under setting [1], the AC50 was 6.51 µM [falling, single point].
